At least one compound was matched to its structure with a doubt left.
Test system: HBV RNA
Assay: Intracellular HBV RNA by quantitative northern blot hybridization in 2.2.15 cells
Assay type: cell-based, Hepatitis B Virus
Procedure: Cultures of 2.2.15 cells were treated under standard procedures and semi-quantitative EIA-based analysis of HBV proteins was performed as previously described (Korba and Gerin, 1995), except that HBeAg was analyzed ETI-EBK Plus® (DiaSorin, Inc., Stillwater, Minn. USA). Samples were diluted (2 to 10-fold) to bring levels into the dynamic response ranges of the EIA's. HBsAg, and HBeAg were analyzed from culture medium samples and HBcAg was analyzed from intracellular lysates. Intracellular HBV RNA was assessed by quantitative northern blot hybridization (Korba and Gerin, 1995).

**Q.** For `Nc1ccn([C@@H]2CS[C@H](CO)O2)c(=O)n1` [LMV, lamivudine], which “effect on intracellular HBV RNA (Northern blot hybridization)” value is on record?
**A.** Its value is “did not affect”.

From patent publication US8895752B2, “Alkylsulfonyl-substituted thiazolide compounds” (priority 2007, dated 2014)
